# Results as given in the supplement of paper PMC4604168 (melanoma cell lines).
# The other results are listed elsewhere or left out. Many values rest on one well or one pass, so single values are uncertain.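 Cells were imaged in 1,536-well plates, and nuclei stained with an antibody against cleaved PARP were counted against all DNA-stained nuclei to give the apoptosis fraction. Screening doses were chosen to leave most cells alive, and resting and induced cleaved-PARP levels differ strongly between cell lines.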
# Legend:
# Assay in all cases: cleaved PARP positive nuclei fraction relative to DMSO control; melanoma cells; higher = more apoptosis
# Details in all cases: library dose: low library concentration; 72 h
# MZ2-MEL = system: MZ2-MEL
# MeWo = system: MeWo
# RPMI7951 = system: RPMI7951
# RVH-421 = system: RVH-421
# SkMel28 = system: SkMel28
# SkMel2 = system: SkMel2
# SkMel30 = system: SkMel30
# SkMel5 = system: SkMel5
# UACC257 = system: UACC257
# UACC62 = system: UACC62
# WM115 = system: WM115
# WM1716 = system: WM1716
# WM1745 = system: WM1745
# WM3526 = system: WM3526
# WM3619 = system: WM3619
# WM451Lu = system: WM451Lu
SMILES,cleaved PARP positive nuclei fraction (MZ2-MEL),cleaved PARP positive nuclei fraction (MeWo),cleaved PARP positive nuclei fraction (RPMI7951),cleaved PARP positive nuclei fraction (RVH-421),cleaved PARP positive nuclei fraction (SkMel28),cleaved PARP positive nuclei fraction (SkMel2),cleaved PARP positive nuclei fraction (SkMel30),cleaved PARP positive nuclei fraction (SkMel5),cleaved PARP positive nuclei fraction (UACC257),cleaved PARP positive nuclei fraction (UACC62),cleaved PARP positive nuclei fraction (WM115),cleaved PARP positive nuclei fraction (WM1716),cleaved PARP positive nuclei fraction (WM1745),cleaved PARP positive nuclei fraction (WM3526),cleaved PARP positive nuclei fraction (WM3619),cleaved PARP positive nuclei fraction (WM451Lu)
"Nc1ncn([C@H]2C[C@H](O)[C@@H](CO)O2)c(=O)n1 [decitabine] + CC1(C)NC(=O)N(c2ccc([N+](=O)[O-])c(C(F)(F)F)c2)C1=O [nilutamide] (first compound 0.1 µM, partner dose 1 µM)",135%,197%,113%,39.2%,119%,118%,71.9%,75.9%,59%,35.3%,137%,98.5%,78%,49.1%,76.7%,124%
"Cc1cc(Nc2cc(N3CCN(C)CC3)nc(/C=C/c3ccccc3)n2)n[nH]1 + Cn1cc(/C=C2\C(=O)Nc3cccnc32)c2ccccc21 [GW441756] (first compound 0.04 µM, partner dose 0.4 µM)",151%,144%,36.6%,92.5%,106%,133%,72.8%,183%,97%,51.9%,126%,84.6%,103%,68.6%,170%,69.6%
"C[C@@H](Oc1cc(-c2cnn(C3CCNCC3)c2)cnc1N)c1c(Cl)ccc(F)c1Cl [Crizotinib] + NCC(=O)Nc1ccc(-n2nc(C(F)(F)F)cc2-c2ccc3c(ccc4ccccc43)c2)cc1 [OSU03012] (first compound 0.2 µM, partner dose 1 µM)",60.8%,71.2%,131%,65.5%,101%,215%,210%,226%,113%,104%,116%,66.6%,97.3%,107%,81.6%,68.5%
"Cc1cc(Nc2cc(N3CCN(C)CC3)nc(/C=C/c3ccccc3)n2)n[nH]1 + Cc1cc(N2CCOCC2)cc2[nH]c(-c3c(NC[C@@H](O)c4cccc(Cl)c4)cc[nH]c3=O)nc12 [BMS536924] (first compound 0.04 µM, partner dose 0.2 µM)",115%,113%,51%,89.9%,132%,61.9%,72%,57.3%,56.7%,320%,164%,145%,149%,31.7%,97.6%,102%
"CS(=O)(=O)CCNCc1ccc(-c2ccc3ncnc(Nc4ccc(OCc5cccc(F)c5)c(Cl)c4)c3c2)o1 [lapatinib] + COc1ccc2c(c1)CCC1C2CCC2(C)C(NCCCCCCN3C(=O)C=CC3=O)CCC12 [U73122] (first compound 0.8 µM, partner dose 0.4 µM)",83.4%,71.1%,76.1%,128%,180%,25.6%,61.4%,79.1%,222%,125%,92.6%,55.9%,82.5%,74.6%,108%,63.3%
"Nc1nc(F)nc2c1ncn2[C@@H]1O[C@H](CO)[C@@H](O)[C@@H]1O [fludarabine] + COc1ccc(-c2ccc3c(N4CCOCC4)nc(N4C[C@@H](C)O[C@@H](C)C4)nc3n2)cc1CO [KU0063794] (first compound 0.2 µM, partner dose 0.02 µM)",17.3%,578%,39.8%,155%,246%,1090%,1740%,134%,173%,112%,155%,205%,94.6%,1640%,89.6%,761%
"Nc1ncn([C@H]2C[C@H](O)[C@@H](CO)O2)c(=O)n1 [decitabine] + COc1ccc2c(c1)CCC1C2CCC2(C)C(NCCCCCCN3C(=O)C=CC3=O)CCC12 [U73122] (first compound 0.1 µM, partner dose 0.4 µM)",145%,140%,75.3%,1080%,99.3%,221%,47.2%,72.2%,81.7%,136%,151%,57.7%,192%,72.4%,63.8%,52.3%
"O=C(O)[C@@H]1[O][Sb](=[O])([O][Sb]2(=[O])[O][C@H]([C@H](O)CO)[C@H](O)[C@H](C(=O)O)[O]2)[O][C@H]([C@H](O)CO)[C@@H]1O (stereo partly drawn) [stibogluconate] + O=C(Nc1cccc(Cl)c1)Nc1ncc(CCNc2ncnc3ccsc23)s1 [SNS314] (first compound 2 µM, partner dose 0.0008 µM)",198%,96.2%,125%,73.7%,18.3%,95.7%,185%,124%,24.5%,116%,85%,62.5%,94%,67.6%,90.8%,360%
"CNC(=O)c1cc(Oc2ccc(NC(=O)Nc3ccc(Cl)c(C(F)(F)F)c3)cc2)ccn1 [sorafenib] + Cc1cc(N2CCOCC2)cc2[nH]c(-c3c(NC[C@@H](O)c4cccc(Cl)c4)cc[nH]c3=O)nc12 [BMS536924] (first compound 0.4 µM, partner dose 0.2 µM)",202%,70.2%,99.2%,79.2%,66.7%,168%,245%,156%,37.5%,64.6%,31.9%,58.5%,116%,29.2%,110%,86.5%
"CN1CCN(c2ccc3nc(-c4c(N)c5c(F)cccc5[nH]c4=O)[nH]c3c2)CC1 [Dovitinib] + CN(C)S(=O)(=O)c1ccc2c(c1)/C(=C/c1cc3c([nH]1)CCCC3)C(=O)N2 [SU6656] (first compound 0.1 µM, partner dose 0.4 µM)",181%,135%,88.5%,46.8%,149%,65%,130%,84.5%,108%,83.2%,216%,105%,131%,41.7%,73.4%,39.2%
"C[C@@H](Oc1cc(-c2cnn(C3CCNCC3)c2)cnc1N)c1c(Cl)ccc(F)c1Cl [Crizotinib] + Cc1ccc(NC(=O)c2cccc(N(C)C)c2)cc1NC(=O)c1ccc(O)cc1 [ZM336372] (first compound 0.2 µM, partner dose 2 µM)",55.3%,52.1%,48.3%,103%,60.2%,101%,76.8%,82.4%,67.5%,123%,81%,71.7%,109%,169%,90.7%,168%
"Cn1c(=O)n(-c2ccc(C(C)(C)C#N)cc2)c2c3cc(-c4cnc5ccccc5c4)ccc3ncc21 + N#Cc1c(O)c2c(-c3ccc(-c4ccccc4O)cc3)csc2[nH]c1=O [A769662] (first compound 0.004 µM, partner dose 2 µM)",115%,138%,127%,167%,201%,112%,59.6%,72.4%,39.4%,144%,141%,51.6%,80.2%,407%,117%,807%
"Nc1ccn([C@@H]2O[C@H](CO)[C@@H](O)C2(F)F)c(=O)n1 [gemcitabine] + CO[C@@H]1[C@H](N(C)C(=O)c2ccccc2)C[C@H]2O[C@]1(C)n1c3ccccc3c3c4c(c5c6ccccc6n2c5c31)C(=O)NC4 [Midostaurin] (first compound 0.0004 µM, partner dose 0.08 µM)",152%,225%,111%,76.5%,54.9%,178%,107%,89.6%,48.9%,90.5%,101%,136%,135%,53.7%,159%,47.4%
"Nc1ccn([C@@H]2O[C@H](CO)[C@@H](O)C2(F)F)c(=O)n1 [gemcitabine] + Cc1cc([N+](=O)[O-])ccc1NS(=O)(=O)c1cc(Cl)ccc1Cl [FH535] (first compound 0.0004 µM, partner dose 1 µM)",124%,195%,146%,244%,124%,31.3%,109%,36%,223%,120%,128%,160%,132%,74.2%,360%,121%
"Cc1cc(Nc2cc(N3CCN(C)CC3)nc(/C=C/c3ccccc3)n2)n[nH]1 + Oc1cc(-c2nc(-c3ccccc3)[nH]c2-c2ccncc2)ccc1Cl [L779450] (first compound 0.04 µM, partner dose 0.2 µM)",95.2%,29.4%,75.4%,132%,257%,174%,40.6%,148%,140%,374%,125%,87.1%,102%,111%,110%,69.1%
"Cc1cc(Nc2cc(N3CCN(C)CC3)nc(/C=C/c3ccccc3)n2)n[nH]1 + CCc1ccc(CCOc2ccc(CC3SC(=O)NC3=O)cc2)nc1 [pioglitazone] (first compound 0.04 µM, partner dose 2 µM)",30.1%,48.4%,112%,120%,127%,169%,252%,80.3%,214%,77.4%,130%,102%,96.7%,72.9%,81.8%,23.9%
"O=C(O)c1ccc2c(c1)nc(Nc1cccc(Cl)c1)c1ccncc12 + COc1cc(Nc2ncc(F)c(Nc3ccc4c(n3)NC(=O)C(C)(C)O4)n2)cc(OC)c1OC [Tamatinib] (first compound 0.4 µM, partner dose 0.4 µM)",280%,167%,74.5%,51.8%,72.3%,111%,80.4%,35.4%,236%,142%,122%,100%,129%,146%,118%,153%
"O=C(O)[C@@H]1[O][Sb](=[O])([O][Sb]2(=[O])[O][C@H]([C@H](O)CO)[C@H](O)[C@H](C(=O)O)[O]2)[O][C@H]([C@H](O)CO)[C@@H]1O (stereo partly drawn) [stibogluconate] + COc1ccc2c(c1)CCC1C2CCC2(C)C(NCCCCCCN3C(=O)C=CC3=O)CCC12 [U73122] (first compound 2 µM, partner dose 0.4 µM)",31.7%,93.9%,108%,94.9%,36.1%,86.8%,37.8%,174%,120%,65.8%,91.4%,88%,94.6%,46.3%,85.7%,42.7%

# Some values from above:
# In cleaved PARP positive nuclei fraction (WM115), C[C@@H](Oc1cc(-c2cnn(C3CCNCC3)c2)cnc1N)c1c(Cl)ccc(F)c1Cl [Crizotinib] + Cc1ccc(NC(=O)c2cccc(N(C)C)c2)cc1NC(=O)c1ccc(O)cc1 [ZM336372] (first compound 0.2 µM, partner dose 2 µM) is listed with 81%
# In cleaved PARP positive nuclei fraction (UACC257), Nc1ccn([C@@H]2O[C@H](CO)[C@@H](O)C2(F)F)c(=O)n1 [gemcitabine] + Cc1cc([N+](=O)[O-])ccc1NS(=O)(=O)c1cc(Cl)ccc1Cl [FH535] (first compound 0.0004 µM, partner dose 1 µM) is listed with 223%
